Results reported in PubChem BioAssay AID540276 (National Center for Advancing Translational Sciences (NCATS), 2011).
The whole screen tested about 300,000 compounds, of which about 5,400 (1.8%) were called active. This list was built around the results that the source calls inconclusive (neither active nor inactive); the mix of calls is not that of the screen. Calls come from the whole dose curve; tested in HEK293 cells. Where the call is inconclusive, the potency comes from a doubtful curve fit.

experiment: qHTS for inhibitors of binding or entry into cells for Marburg Virus; conditions: Marburg virus pseudotyped entry inhibition, cell reporter; activity change, negative = inhibition: at 37.8 µM (top of the series) unless noted
% is set by controls: 0 for no effect and ±100 for the full control effect; potency is the fitted concentration of half-maximal effect.

Structure (SMILES)	Potency	activity change, negative = inhibition
CC(=O)NC(CCCNC(=S)NC1CCCCC1)C(=O)O (centres undefined)	inconclusive: 3.55 µM [activator, single point]	
Cc1cccc(NC(=O)Cn2cc(C(=O)c3ccccc3)c3ccccc32)c1C	inconclusive: 5.62 µM [inhibitor, single point]	
CC1(C)CC(=O)C(C=NCC(O)c2ccccc2)=C(O)C1 (centres undefined)	inconclusive: 4.61 µM [inhibitor, single point]	
COc1cc(CC(=O)OCC(=O)Nc2ccc(S(=O)(=O)N3CCCC3)cc2)cc(OC)c1OC	inconclusive: 5.62 µM [inhibitor, single point]	
CCc1ccc(N=c2c([N+](=O)[O-])nn(-c3ccccc3)n2O)cc1	inconclusive: 32.6 µM [inhibitor, single point]	
CCOC(=O)N1CCN(C(=O)c2ccccc2NC(=O)c2ccc(Br)cc2)CC1	inconclusive: 29.1 µM [activator, partial curve, poor fit]	
O=C(CN(Cc1ccc(F)cc1)C(=O)c1csnn1)NCc1ccc2c(c1)OCO2	inactive	
CCOC(=O)c1sc(NC(=O)c2nc3nc(C)cc(C(F)F)n3n2)c(C(=O)OC)c1C	inconclusive: 17.8 µM [activator, partial curve, poor fit]	
Cc1cc(N/C=C\C(=O)c2cccc3ccccc23)no1	inactive	
Cc1ccc(-n2ncc3c2CCCC3NC(=O)c2ccoc2)cc1C (centres undefined)	inconclusive: 7.94 µM [inhibitor, partial curve, poor fit]	
COc1cccc(C(c2c(N)[nH]c(=S)[nH]c2=O)c2c(N)[nH]c(=S)[nH]c2=O)c1	inactive	
COCCCNC(=S)Nc1cc2oc3ccccc3c2cc1OC	inconclusive: 28.2 µM [inhibitor, single point]	
Cc1ccc(O)c(-c2cc(C(=O)Nc3ccc(S(=O)(=O)N4CC(C)OC(C)C4)cc3)[nH]n2)c1 (centres undefined)	inconclusive: 29.1 µM [inhibitor, single point]	
COc1ccccc1NC(=O)CN1CCN(C(=O)c2ccco2)CC1	inactive	
N#CC12COC3(CCCCC3C1(C#N)C#N)OC2=N (centres undefined)		inconclusive: 2.59% [activator]
CCN(CC)S(=O)(=O)c1ccc(N2CCOCC2)c(NC(=O)C2COc3ccccc3O2)c1 (centres undefined)	inconclusive: 25.1 µM [inhibitor, single point]	
CCOC(=O)C1CCCCN1Cc1cccc(C(F)(F)F)c1 (centres undefined)	inactive	
N#C/C(=C\c1ccc(O)c(O)c1)S(=O)(=O)c1ccccc1	inactive	
CN(C)c1ccc(-c2nnn(CC(=O)N3c4ccccc4CCc4ccccc43)n2)cc1	inconclusive: 14.6 µM [inhibitor, partial curve, poor fit]	
CCOc1cccc(C(=O)NC(=S)Nc2cccc(NC(=O)c3ccccc3Cl)c2)c1	inconclusive: 32.6 µM [inhibitor, single point]	
CN1CCN(C(=O)c2ccccc2-c2nc(-c3ccc(Cl)cc3)no2)CC1	inconclusive: 13 µM [inhibitor, partial curve, poor fit]	
CCn1ccnc1CN1CCC(CO)(CCOc2ccccc2)CC1	inconclusive: 3.55 µM [activator, single point]	
COc1ccc(-c2noc(-c3ccccc3C(=O)NCc3ccco3)n2)cc1OC	inconclusive: 0.794 µM [inhibitor, partial curve, poor fit]	

Retrieved by structure from the list above:
Structure (SMILES)	Potency	activity change, negative = inhibition
COc1ccc(-c2noc(-c3ccccc3C(=O)NCc3ccco3)n2)cc1OC	inconclusive: 0.794 µM [inhibitor, partial curve, poor fit]	
CC1(C)CC(=O)C(C=NCC(O)c2ccccc2)=C(O)C1 (centres undefined)	inconclusive: 4.61 µM [inhibitor, single point]	
CCOC(=O)C1CCCCN1Cc1cccc(C(F)(F)F)c1 (centres undefined)	inactive	

(listing goes on)

Structure (SMILES)	Potency	activity change, negative = inhibition
CCN1CCN(c2cc(C)c3cc(NC(=O)c4cc(OC)cc(OC)c4)ccc3n2)CC1	inconclusive: 7.94 µM [inhibitor, single point]	
CN(C)S(=O)(=O)c1ccc(-c2csc(N/N=C/c3ccc(O)cc3)n2)cc1	active: 7.3 µM	
O=C(Nc1cc(Cl)ccc1C(=O)O)c1ccc(CN2C(=O)c3ccccc3C2=O)cc1	inconclusive: 5.62 µM [inhibitor, single point]	
CCOC(=O)N1CCC(n2c(SCC(=O)Nc3nccs3)nc3ccsc3c2=O)CC1	inconclusive: 29.1 µM [inhibitor, single point]	
O=S(Cc1cc(Sc2ccccc2)nc(-c2ccccc2)n1)c1ccccc1 (centres undefined)	inconclusive: 6.31 µM [inhibitor, single point]	
COc1ccc(CCNC(=O)CCCOc2ccc(C)cc2)cc1OC	inconclusive: 3.55 µM [inhibitor, single point]	
COc1cc(/C=N/NC(=O)c2ccc(N3CCCC3=O)cc2)ccc1O	inactive	
CCOC(=O)Cc1csc(N/N=C/c2ccc(Cl)cc2)n1	inconclusive: 0.562 µM [inhibitor, full curve, poor fit]	
CCCn1c(SCC(=O)Nc2ccccc2OC)nnc1-c1ccco1	inconclusive: 1.26 µM [inhibitor, full curve, poor fit]	
O=C(Nc1ccccc1)N1CCCN(Cc2ccccc2F)C1	inconclusive: 4.47 µM [inhibitor, partial curve]	
CCOC(=O)CCC(NC(=O)CCC(=O)NC(CCC(=O)OCC)C(=O)OCC)C(=O)OCC (centres undefined)	inactive	
C=CCC1(O)CC(c2ccco2)NC(c2ccco2)C1CCC (centres undefined)	inconclusive: 18.3 µM [inhibitor, single point]	
CCOC(=O)C(CC)Sc1nnc(COc2ccc(C)cc2)n1-c1ccccc1 (centres undefined)	inconclusive: 0.146 µM [inhibitor, full curve, poor fit]	
Cc1ccc(S(=O)(=O)N2CCN(C(=O)C3Cc4ccccc4CN3C(=O)c3ccco3)CC2)cc1 (centres undefined)	inconclusive: 35.5 µM [inhibitor, single point]	
Cc1ccccc1NC(=S)N1CCN(Cc2ccc3c(c2)OCO3)CC1	inconclusive: 6.31 µM [activator, single point]	
COc1ccc(C(C)NC(=S)NCc2ccc(F)cc2)cc1 (centres undefined)	inactive	
Cc1noc(C)c1CSc1nnc(-c2ccccc2F)n1CCc1ccccc1	inconclusive: 35.5 µM [inhibitor, single point]	
CCOc1cc(CNC(C)(C)CO)cc(Br)c1OCc1ccc(Cl)cc1Cl	active: 18.3 µM	
CC1(C(=O)NC(=S)N(Cc2ccccc2)c2ccccn2)CC1(Cl)Cl (centres undefined)	inactive	
O=C(NC(=S)Nc1ccc(Cl)cc1)c1ccccc1	inconclusive: 3.55 µM [activator, full curve, poor fit]	
COc1ccc(C(C(=O)NC2CCCCC2)N(C(=O)Cc2c[nH]c3ccccc23)c2ccccc2C)cc1OC (centres undefined)	inconclusive: 35.5 µM [inhibitor, single point]	
O=C(Nc1ccc(Br)c(Cl)c1)C1CC1	inactive	
CCOc1ccccc1N1CC(c2nc3ccccc3n2CCCCOc2ccccc2)CC1=O (centres undefined)	inconclusive: 20 µM [inhibitor, single point]	

Structure (SMILES)	Potency	activity change, negative = inhibition
Cc1ccc(Nc2nnc(C(C)(C)C)c(=O)n2N)cc1	inactive	
CC(=O)N1CCCN(C(=O)c2cc(COc3c(F)cccc3F)on2)CC1	inactive	
O=C(NCCc1ccccc1)c1ccc2nc(-c3ccco3)c(-c3ccco3)nc2c1	inconclusive: 8.2 µM [inhibitor, partial curve, poor fit]	
CC(NC(=O)c1c(O)nc2ccccn2c1=O)c1ccccc1 (centres undefined)	inactive	
N/C(=N/OC(=O)c1ccccc1Cl)c1nonc1N	inactive	
Cc1ccc(C)c(C(=O)N2CCC(c3nc4c(nnn4Cc4ccccc4)c(=O)[nH]3)CC2)c1	inactive	
Cc1ccc(Cn2ncc3c(N4CCN(CCc5ccccc5)CC4)ncnc32)cc1	inconclusive: 1.78 µM [inhibitor, full curve]	
O=C(CCCC(=O)N(CC(=O)NC1CCCCC1)c1ccccc1F)Nc1ccccn1	inconclusive: 20 µM [inhibitor, single point]	
O=C(CSCc1cccc(CSCC(=O)Nc2ccccc2)n1)Nc1ccccc1	inconclusive: 15.8 µM [inhibitor, single point]	
O=C(Nc1ccccc1N1CCOCC1)c1cc2c(s1)CCCCC2	inconclusive: 5.62 µM [activator, single point]	
CC(C)OCCCN1C=C2C(=O)C(C)(OC(=O)C3CCCC3)C(=O)C=C2C=C1c1ccsc1 (centres undefined)	inconclusive: 0.106 µM [inhibitor, single point]	
CCOC(=O)c1sc(N)c(C#N)c1CSc1nnc(C2CCCCC2)n1N	inactive	
Cc1ccc(CNc2c(C)c(C)nc3nncn23)cc1	inconclusive: 3.98 µM [inhibitor, partial curve]	
c1ccc(-c2nnc3sc(CN4CCc5ccccc54)cn23)cc1	inconclusive: 4.61 µM [inhibitor, full curve, poor fit]	
COc1ccc(OC)c(C2CC(=O)Nc3ccc4ccccc4c32)c1 (centres undefined)	inconclusive: 35.5 µM [inhibitor, single point]	
COc1cc2c(cc1OC)C(c1ccc([N+](=O)[O-])cc1)N(C(C)=O)CC2 (centres undefined)	inconclusive: 5.01 µM [inhibitor, full curve]	
NC(=O)c1nn(-c2cccc(Cl)c2)c(=O)cc1O	inconclusive: 25.9 µM [activator, single point]	
Cc1ccc(Cn2ncc3c(N4CCN(C)CC4)ncnc32)cc1	inactive	
O=C(NNC(=S)NC(=O)c1ccco1)c1ccc(NC(=O)c2ccccc2)cc1	inconclusive: 12.6 µM [inhibitor, partial curve, poor fit]	
C=CCOc1ccc(/C=C2\SC(=Nc3cccnc3)NC2=O)cc1	inconclusive: 35.5 µM [inhibitor, single point]	
O=C(Cc1ccc(Cl)cc1Cl)Nc1ccncc1	inactive	
Cc1c(C(=O)NC2CCCCC2C)oc2ccccc12 (centres undefined)	inactive	
CSc1nc(N)nc(SCC(=O)c2ccccc2)c1C#N	inactive	
